Assay results from paper PMC8371122.

By UniProt entry, the sequences of proteins in these tests, tags left out. Residues count along the entry.
UniProt Q8BPU7: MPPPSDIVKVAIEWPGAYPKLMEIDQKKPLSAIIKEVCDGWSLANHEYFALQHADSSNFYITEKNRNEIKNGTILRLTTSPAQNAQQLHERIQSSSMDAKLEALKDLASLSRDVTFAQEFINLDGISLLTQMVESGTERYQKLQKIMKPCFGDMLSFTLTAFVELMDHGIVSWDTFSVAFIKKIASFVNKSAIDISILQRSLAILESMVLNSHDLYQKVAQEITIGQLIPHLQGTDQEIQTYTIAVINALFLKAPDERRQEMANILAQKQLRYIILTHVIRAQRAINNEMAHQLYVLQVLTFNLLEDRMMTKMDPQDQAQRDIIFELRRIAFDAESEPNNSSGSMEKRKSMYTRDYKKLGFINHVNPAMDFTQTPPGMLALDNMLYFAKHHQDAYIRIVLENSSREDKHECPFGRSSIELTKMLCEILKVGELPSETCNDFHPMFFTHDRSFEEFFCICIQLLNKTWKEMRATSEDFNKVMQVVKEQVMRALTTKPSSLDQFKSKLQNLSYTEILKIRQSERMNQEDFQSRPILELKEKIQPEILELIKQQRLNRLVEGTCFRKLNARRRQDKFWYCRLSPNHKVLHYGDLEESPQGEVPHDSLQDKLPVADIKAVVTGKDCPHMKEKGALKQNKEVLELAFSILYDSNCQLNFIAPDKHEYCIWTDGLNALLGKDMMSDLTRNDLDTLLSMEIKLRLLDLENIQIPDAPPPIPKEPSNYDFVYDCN
UniProt Q91ZX7, residues 20-4545: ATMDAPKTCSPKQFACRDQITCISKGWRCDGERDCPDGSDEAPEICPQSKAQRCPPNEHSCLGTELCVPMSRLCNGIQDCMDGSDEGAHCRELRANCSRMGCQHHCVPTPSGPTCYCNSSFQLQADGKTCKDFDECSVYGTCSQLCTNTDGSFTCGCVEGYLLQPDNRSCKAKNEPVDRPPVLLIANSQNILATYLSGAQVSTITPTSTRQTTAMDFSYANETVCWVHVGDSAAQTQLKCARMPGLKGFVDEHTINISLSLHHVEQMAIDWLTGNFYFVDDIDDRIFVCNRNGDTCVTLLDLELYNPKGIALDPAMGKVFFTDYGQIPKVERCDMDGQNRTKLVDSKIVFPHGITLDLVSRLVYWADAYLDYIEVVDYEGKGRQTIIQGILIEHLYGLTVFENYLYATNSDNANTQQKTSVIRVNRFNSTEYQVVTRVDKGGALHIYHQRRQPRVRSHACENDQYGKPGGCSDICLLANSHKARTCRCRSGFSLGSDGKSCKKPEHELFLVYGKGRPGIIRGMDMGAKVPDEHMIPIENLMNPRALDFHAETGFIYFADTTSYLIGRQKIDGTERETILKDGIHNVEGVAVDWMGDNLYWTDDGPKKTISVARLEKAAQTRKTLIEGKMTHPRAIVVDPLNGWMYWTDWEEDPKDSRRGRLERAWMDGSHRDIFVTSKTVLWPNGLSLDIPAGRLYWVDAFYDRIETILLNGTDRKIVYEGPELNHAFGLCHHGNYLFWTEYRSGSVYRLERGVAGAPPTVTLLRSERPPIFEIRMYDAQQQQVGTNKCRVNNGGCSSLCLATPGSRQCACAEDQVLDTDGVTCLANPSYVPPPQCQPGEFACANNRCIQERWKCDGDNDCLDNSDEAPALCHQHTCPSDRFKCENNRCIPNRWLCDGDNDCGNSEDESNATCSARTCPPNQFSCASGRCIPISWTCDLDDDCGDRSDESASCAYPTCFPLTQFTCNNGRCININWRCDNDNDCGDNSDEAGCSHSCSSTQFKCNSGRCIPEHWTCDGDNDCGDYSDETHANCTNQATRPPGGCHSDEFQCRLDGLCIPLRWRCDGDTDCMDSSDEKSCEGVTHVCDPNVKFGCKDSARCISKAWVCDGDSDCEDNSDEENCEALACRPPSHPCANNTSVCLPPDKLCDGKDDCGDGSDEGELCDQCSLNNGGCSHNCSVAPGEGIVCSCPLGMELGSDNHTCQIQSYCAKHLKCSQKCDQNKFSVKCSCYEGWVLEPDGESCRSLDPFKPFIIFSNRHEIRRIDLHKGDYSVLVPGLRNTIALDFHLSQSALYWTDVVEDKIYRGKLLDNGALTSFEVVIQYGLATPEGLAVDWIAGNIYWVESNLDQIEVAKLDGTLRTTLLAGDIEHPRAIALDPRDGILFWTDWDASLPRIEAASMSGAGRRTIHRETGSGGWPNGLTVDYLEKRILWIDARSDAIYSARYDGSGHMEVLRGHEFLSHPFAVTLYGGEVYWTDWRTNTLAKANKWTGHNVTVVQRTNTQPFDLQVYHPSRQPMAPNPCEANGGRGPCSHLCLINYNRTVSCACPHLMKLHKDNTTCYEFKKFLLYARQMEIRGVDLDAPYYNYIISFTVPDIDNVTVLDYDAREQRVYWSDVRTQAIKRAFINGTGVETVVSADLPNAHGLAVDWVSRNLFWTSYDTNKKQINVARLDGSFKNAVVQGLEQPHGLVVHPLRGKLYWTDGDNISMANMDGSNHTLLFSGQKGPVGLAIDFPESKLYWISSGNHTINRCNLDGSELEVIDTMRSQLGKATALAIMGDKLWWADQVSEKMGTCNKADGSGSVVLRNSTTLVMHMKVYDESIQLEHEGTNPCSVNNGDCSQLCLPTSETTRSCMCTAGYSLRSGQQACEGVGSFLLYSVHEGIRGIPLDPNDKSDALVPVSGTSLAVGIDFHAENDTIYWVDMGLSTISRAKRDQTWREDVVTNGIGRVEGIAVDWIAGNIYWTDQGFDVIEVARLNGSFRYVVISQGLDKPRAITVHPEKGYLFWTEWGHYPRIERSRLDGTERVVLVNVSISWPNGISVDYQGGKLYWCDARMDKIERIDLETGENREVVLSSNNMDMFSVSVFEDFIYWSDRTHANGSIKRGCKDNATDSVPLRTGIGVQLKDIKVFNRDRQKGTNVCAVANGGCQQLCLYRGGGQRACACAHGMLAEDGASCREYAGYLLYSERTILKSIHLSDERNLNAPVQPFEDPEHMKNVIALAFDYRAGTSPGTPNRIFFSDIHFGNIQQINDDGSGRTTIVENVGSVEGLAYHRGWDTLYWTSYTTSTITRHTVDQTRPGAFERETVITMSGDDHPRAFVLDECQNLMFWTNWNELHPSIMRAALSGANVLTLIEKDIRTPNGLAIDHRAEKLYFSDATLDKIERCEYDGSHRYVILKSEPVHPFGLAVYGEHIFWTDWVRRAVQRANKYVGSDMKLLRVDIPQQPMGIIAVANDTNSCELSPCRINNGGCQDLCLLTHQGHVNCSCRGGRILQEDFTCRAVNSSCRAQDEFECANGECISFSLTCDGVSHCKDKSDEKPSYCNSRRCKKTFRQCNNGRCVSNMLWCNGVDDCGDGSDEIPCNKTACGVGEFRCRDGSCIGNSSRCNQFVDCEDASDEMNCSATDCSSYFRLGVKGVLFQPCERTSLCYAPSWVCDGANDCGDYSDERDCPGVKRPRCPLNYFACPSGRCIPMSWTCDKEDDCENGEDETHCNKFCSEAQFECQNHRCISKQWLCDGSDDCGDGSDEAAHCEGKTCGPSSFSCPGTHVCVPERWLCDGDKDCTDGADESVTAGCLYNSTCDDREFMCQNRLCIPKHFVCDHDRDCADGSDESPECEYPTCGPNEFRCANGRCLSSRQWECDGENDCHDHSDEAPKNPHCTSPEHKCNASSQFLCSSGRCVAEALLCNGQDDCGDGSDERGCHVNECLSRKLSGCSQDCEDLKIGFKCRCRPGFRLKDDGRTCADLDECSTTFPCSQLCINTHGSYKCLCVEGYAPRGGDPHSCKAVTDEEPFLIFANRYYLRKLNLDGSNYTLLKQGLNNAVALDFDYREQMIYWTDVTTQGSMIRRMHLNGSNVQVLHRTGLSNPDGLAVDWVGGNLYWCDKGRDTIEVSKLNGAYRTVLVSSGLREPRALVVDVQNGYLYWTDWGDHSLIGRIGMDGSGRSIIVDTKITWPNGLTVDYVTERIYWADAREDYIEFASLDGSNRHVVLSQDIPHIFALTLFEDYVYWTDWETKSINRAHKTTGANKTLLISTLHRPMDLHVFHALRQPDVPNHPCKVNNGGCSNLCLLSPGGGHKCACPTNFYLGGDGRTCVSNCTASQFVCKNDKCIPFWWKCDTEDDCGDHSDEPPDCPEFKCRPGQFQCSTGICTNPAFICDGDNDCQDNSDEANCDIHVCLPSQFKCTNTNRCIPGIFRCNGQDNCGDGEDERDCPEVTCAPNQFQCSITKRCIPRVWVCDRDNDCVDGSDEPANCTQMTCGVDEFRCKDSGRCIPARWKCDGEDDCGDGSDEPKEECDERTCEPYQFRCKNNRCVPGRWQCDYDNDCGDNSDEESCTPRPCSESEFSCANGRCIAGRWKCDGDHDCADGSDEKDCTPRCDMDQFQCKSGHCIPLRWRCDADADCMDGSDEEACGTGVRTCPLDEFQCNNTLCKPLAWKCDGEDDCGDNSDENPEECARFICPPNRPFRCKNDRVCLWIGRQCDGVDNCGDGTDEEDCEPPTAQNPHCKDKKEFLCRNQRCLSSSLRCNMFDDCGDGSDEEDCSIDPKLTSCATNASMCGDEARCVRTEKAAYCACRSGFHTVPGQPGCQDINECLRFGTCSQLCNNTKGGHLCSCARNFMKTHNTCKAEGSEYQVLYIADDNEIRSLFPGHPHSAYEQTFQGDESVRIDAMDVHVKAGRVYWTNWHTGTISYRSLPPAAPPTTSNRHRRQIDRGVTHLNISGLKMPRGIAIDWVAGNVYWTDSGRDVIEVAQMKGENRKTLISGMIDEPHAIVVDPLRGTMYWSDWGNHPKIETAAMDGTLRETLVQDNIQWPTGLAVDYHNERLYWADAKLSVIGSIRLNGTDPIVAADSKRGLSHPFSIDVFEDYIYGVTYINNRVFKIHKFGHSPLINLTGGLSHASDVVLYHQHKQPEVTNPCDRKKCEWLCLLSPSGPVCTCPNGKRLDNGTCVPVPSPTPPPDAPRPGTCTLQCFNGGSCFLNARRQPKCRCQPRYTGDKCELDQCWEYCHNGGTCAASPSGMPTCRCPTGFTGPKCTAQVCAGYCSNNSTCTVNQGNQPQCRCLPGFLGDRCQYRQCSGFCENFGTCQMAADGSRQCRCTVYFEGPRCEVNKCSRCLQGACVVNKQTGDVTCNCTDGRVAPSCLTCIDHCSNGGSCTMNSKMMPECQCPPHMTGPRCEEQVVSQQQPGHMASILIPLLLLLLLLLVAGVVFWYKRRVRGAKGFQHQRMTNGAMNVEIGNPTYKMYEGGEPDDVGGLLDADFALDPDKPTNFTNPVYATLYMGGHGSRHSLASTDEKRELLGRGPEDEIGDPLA
UniProt Q80SY3: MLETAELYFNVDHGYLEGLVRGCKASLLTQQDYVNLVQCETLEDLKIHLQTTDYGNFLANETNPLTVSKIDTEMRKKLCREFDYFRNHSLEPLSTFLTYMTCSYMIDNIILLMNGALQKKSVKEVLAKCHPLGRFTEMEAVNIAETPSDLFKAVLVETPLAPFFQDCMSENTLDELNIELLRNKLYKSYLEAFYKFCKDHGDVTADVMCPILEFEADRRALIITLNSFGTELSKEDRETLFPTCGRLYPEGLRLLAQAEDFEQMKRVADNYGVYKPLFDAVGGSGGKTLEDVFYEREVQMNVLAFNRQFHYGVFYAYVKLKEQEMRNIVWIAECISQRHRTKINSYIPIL

B1: SIRPα (receptor, UniProt P97797 32-513)
chain: KELKVTQPEKSVSVAAGDSTVLNCTLTSLLPVGPIRWYRGVGPSRLLIYSFAGEYVPRIRNVSDTTKRNNMDFSIRISNVTPADAGIYYCVKFQKGSSEPDTEIQSGGGTEVYVLAKPSPPEVSGPADRGIPDQKVNFTCKSHGFSPRNITLKWFKDGQELHPLETTVNPSGKNVSYNISSTVRVVLNSMDVNSKVICEVAHITLDRSPLRGIANLSNFIRVSPTVKVTQQSPTSMNQVNLTCRAERFYPEDLQLIWLENGNVSRNDTPKNLTKNTDGTYNYTSLFLVNSSAHREDVVFTCQVKHDQQPAITRNHTVLGFAHSSDQGSMQTFPDNNATHNWNVFIGVGVACALLVVLLMAALYLLRIKQKKAKGSTSSTRLHEPEKNAREITQVQSLIQDTNDINDITYADLNLPKEKKPAPRAPEPNNHTEYASIETGKVPRPEDTLTYADLDMVHLSRAQPAPKPEPSFSEYASVQVQRK
modifications: biotin (cell surface labelling with EZ-Link NHS-Biotin)
B2: Osteoactivin (receptor, UniProt Q99P91 23-574)
chain: KRFRDVLGHEQYPDHMREHNQLRGWSSDENEWDEHLYPVWRRGDGRWKDSWEGGRVQAVLTSDSPALVGSNITFVVNLVFPRCQKEDANGNIVYEKNCRNDLGLTSDLHVYNWTAGADDGDWEDGTSRSQHLRFPDRRPFPRPHGWKKWSFVYVFHTLGQYFQKLGRCSARVSINTVNLTAGPQVMEVTVFRRYGRAYIPISKVKDVYVITDQIPVFVTMSQKNDRNLSDEIFLRDLPIVFDVLIHDPSHFLNDSAISYKWNFGDNTGLFVSNNHTLNHTYVLNGTFNLNLTVQTAVPGPCPPPSPSTPPPPSTPPSPPPSPLPTLSTPSPSLMPTGYKSMELSDISNENCRINRYGYFRATITIVEGILEVSIMQIADVPMPTPQPANSLMDFTVTCKGATPMEACTIISDPTCQIAQNRVCSPVAVDGLCLLSVRRAFNGSGTYCVNFTLGDDASLALTSTLISIPGKDPDSPLRAVNGVLISIGCLAVLVTMVTILLYKKHKAYKPIGNCPRNTVKGKGLSVLLSHAKAPFFRGDQEKDPLLQDKPRTL
modifications: biotin (cell surface labelling with EZ-Link NHS-Biotin)
B3: KCNAB2 (protein, UniProt P62482 1-367)
chain: MYPESTTGSPARLSLRQTGSPGMIYSTRYGSPKRQLQFYRNLGKSGLRVSCLGLGTWVTFGGQITDEMAEHLMTLAYDNGINLFDTAEVYAAGKAEVVLGNIIKKKGWRRSSLVITTKIFWGGKAETERGLSRKHIIEGLKASLERLQLEYVDVVFANRPDPNTPMEETVRAMTHVINQGMAMYWGTSRWSSMEIMEAYSVARQFNLIPPICEQAEYHMFQREKVEVQLPELFHKIGVGAMTWSPLACGIVSGKYDSGIPPYSRASLKGYQWLKDKILSEEGRRQQAKLKELQAIAERLGCTLPQLAIAWCLRNEGVSSVLLGASNAEQLMENIGAIQVLPKLSSSIVHEIDSILGNKPYSKKDYRS
B4: HVCN1 (protein, UniProt Q3U2S8 1-269)
chain: MTSHDPKAVTRRTKVAPTKRMSRFLKHFTVVGDDYHTWNVNYKKWENEEEEEEPAPTSAEGEGNAEGPDAEAGSASTPRQSLDFRSRLRKLFSSHRFQVIIICLVVLDALLVLAELLLDLKIIEPDEQDYAVTAFHYMSFAILVFFMLEIFFKIFVFRLEFFHHKFEILDAFVVVVSFVLDLVLLFKSHHFEALGLLILLRLWRVARIINGIIISVKTRSERQILRLKQINIQLATKIQHLEFSCSEKEQEIERLNKLLKQNGLLGDVN

These molecules were tested against ELMO1 (mouse (endogenous in osteoclasts)) (UniProt Q8BPU7) (assay: affinity purification with mass spectrometry; cell surface proteins of mature mouse osteoclasts labelled with NHS-Biotin; ELMO1 immunoprecipitated (mouse anti-ELMO1, Protein A agarose) from Triton X-100 lysate; immunoprecipitate heated 5 min at 95 °C, biotinylated proteins enriched with NeutrAvidin agarose; SDS-PAGE, LC-MS/MS; Elmo1+/+ and Elmo1-/- osteoclasts).

| binding | Molecule |
| --- | --- |
| binds | LRP1 (from UniProt Q91ZX7 20-4545) (receptor) |
| binds | B1 |
| binds | B2 |

Each molecule was assayed against ELMO1 (mouse (endogenous in osteoclasts)) (UniProt Q8BPU7) (assay: affinity purification with mass spectrometry; total ELMO1 interactome: ELMO1 immunoprecipitated (mouse anti-ELMO1, Protein A agarose) from Triton X-100 lysate of mature mouse osteoclasts; SDS-PAGE, LC-MS/MS; Elmo1+/+ and Elmo1-/- osteoclasts).

| binding | Molecule |
| --- | --- |
| binds | ATP6V0D2 (from UniProt Q80SY3 1-350) |
| binds | B3 |
| binds | B4 |

These are yes or no findings as the source states them, for the method shown. In cells and extracts the contact can be indirect. A yes stands for co-enrichment or nearness to the bait. Other partners may have been found.
